Reference: publication doi:10.1101/2021.10.21.465349
These are yes or no findings as the source states them, for the method shown. In cells and extracts the contact can be indirect. Some binding calls cover weakened binding; strength is not graded here.

Protein sequences, listed by entry. Tags and fused reporters are not part of them.
UniProt Q6XZL8: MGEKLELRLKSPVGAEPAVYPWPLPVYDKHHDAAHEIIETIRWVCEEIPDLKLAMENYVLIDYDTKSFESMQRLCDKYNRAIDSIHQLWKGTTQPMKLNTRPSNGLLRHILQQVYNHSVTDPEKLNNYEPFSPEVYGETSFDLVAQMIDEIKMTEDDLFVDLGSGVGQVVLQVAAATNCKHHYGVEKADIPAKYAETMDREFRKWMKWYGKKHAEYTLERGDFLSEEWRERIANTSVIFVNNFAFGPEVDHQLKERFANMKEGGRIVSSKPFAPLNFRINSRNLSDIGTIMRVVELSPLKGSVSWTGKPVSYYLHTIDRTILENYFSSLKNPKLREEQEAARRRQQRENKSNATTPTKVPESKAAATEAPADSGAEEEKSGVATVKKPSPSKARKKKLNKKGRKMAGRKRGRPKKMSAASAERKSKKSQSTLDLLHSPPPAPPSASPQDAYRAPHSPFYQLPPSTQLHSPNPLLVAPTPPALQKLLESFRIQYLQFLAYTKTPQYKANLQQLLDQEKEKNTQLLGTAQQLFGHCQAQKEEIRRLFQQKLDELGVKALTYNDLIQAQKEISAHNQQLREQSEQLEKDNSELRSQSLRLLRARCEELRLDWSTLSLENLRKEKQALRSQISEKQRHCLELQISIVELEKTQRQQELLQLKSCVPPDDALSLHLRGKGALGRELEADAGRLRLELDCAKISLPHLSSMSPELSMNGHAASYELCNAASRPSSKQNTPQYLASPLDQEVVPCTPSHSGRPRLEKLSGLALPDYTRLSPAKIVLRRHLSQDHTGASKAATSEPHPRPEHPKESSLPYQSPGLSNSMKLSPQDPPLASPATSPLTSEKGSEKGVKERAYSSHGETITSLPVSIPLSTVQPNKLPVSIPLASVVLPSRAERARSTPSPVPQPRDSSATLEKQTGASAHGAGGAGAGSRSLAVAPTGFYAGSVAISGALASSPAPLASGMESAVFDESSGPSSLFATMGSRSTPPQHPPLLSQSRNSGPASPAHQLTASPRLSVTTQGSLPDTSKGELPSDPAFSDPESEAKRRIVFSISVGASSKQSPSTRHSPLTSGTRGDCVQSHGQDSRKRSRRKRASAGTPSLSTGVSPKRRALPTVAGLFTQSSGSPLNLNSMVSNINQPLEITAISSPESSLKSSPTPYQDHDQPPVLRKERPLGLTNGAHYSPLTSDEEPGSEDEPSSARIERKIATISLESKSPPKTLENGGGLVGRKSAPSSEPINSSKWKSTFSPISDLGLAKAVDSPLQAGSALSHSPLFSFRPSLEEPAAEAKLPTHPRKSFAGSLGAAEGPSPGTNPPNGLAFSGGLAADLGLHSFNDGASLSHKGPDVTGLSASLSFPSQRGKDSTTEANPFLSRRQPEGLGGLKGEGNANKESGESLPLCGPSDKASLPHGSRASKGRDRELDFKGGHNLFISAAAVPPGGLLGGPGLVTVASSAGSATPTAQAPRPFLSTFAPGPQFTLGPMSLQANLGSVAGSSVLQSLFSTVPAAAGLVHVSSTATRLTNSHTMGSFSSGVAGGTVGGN
UniProt Q6PDQ2: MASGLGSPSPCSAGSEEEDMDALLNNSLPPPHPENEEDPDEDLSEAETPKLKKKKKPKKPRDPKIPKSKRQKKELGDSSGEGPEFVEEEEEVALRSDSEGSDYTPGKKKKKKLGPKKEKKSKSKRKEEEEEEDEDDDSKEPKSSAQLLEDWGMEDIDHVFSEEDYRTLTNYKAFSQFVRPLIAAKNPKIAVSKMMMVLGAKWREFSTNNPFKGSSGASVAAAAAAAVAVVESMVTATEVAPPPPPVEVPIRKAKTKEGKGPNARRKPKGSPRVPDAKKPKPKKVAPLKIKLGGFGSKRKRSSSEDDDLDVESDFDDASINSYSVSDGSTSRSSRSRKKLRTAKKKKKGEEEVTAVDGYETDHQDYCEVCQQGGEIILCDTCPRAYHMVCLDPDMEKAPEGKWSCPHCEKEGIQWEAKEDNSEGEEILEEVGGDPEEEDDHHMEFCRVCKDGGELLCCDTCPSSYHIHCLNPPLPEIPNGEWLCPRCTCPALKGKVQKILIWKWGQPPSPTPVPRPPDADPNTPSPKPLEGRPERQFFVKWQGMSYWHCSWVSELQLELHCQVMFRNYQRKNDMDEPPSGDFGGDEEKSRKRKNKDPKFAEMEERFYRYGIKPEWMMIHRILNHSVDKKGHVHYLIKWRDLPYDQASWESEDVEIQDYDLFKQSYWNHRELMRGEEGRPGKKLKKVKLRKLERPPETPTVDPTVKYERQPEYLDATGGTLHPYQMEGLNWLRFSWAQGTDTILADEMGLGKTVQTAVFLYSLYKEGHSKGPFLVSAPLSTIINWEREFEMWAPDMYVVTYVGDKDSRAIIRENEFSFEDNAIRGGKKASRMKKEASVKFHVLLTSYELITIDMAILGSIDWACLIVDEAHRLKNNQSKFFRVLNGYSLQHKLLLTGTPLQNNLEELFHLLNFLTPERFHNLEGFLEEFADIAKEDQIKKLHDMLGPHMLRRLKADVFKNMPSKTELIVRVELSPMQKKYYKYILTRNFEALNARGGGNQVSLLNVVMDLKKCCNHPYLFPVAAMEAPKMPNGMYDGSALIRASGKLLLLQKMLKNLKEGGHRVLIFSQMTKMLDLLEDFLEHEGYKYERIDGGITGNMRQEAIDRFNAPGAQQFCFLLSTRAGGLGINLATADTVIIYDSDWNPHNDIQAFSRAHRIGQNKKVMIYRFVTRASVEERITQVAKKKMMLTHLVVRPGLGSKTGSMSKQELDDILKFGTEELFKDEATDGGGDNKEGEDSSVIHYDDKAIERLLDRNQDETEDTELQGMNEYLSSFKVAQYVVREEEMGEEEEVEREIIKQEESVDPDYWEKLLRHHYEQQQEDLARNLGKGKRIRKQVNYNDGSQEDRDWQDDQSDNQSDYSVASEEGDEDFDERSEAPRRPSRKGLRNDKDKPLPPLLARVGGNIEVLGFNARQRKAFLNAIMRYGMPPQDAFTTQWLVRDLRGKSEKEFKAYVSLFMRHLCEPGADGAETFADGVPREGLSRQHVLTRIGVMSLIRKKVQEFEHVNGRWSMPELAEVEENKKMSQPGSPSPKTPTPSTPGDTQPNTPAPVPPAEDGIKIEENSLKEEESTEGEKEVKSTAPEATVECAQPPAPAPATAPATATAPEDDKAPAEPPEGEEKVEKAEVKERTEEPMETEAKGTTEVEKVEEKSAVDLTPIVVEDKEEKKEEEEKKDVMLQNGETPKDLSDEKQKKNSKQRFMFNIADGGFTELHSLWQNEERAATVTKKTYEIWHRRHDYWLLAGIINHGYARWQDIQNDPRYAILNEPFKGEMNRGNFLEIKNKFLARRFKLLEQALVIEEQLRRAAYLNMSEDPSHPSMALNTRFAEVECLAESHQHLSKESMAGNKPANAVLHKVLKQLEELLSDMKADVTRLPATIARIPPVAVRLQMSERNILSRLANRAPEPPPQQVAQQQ
UniProt Q91ZW3: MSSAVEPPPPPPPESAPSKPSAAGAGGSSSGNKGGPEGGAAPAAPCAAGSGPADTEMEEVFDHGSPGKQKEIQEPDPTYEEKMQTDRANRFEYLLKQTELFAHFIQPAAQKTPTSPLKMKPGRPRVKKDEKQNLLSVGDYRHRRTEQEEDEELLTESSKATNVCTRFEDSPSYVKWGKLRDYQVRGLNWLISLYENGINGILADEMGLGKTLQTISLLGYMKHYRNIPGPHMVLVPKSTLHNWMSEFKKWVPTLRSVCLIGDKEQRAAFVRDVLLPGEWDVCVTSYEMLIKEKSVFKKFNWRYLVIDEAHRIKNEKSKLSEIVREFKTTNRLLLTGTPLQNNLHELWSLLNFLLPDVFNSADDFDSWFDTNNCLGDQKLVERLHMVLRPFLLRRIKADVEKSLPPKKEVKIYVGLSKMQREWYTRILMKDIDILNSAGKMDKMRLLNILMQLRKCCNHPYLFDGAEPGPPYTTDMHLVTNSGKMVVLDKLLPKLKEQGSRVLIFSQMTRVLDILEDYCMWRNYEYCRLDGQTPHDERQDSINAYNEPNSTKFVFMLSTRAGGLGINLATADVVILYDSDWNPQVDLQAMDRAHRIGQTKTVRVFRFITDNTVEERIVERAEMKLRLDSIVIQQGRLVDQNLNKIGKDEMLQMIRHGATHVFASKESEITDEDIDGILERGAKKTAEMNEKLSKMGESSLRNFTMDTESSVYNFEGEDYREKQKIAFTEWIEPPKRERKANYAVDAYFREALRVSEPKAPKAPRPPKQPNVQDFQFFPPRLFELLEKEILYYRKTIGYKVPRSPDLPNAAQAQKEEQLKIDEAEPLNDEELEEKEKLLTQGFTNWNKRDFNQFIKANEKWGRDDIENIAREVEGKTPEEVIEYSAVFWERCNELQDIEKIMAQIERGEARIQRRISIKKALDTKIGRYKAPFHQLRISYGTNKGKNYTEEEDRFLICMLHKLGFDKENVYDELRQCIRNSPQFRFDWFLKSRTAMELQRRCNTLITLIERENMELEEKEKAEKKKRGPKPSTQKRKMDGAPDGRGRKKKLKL

B1: HMGA1 (High Mobility Group protein A1) (protein, UniProt P17095 1-107)
chain: MSESGSKSSQPLASKQEKDGTEKRGRGRPRKQPPVSPGTALVGSQKEPSEVPTPKRPRGRPKGSKNKGAAKTRKVTTAPGRKPRGRPKKLEKEEEEGISQESSEEEQ

These molecules were tested against endogenous DOT1L (mouse (endogenous in V6.5 mESCs)) (UniProt Q6XZL8) (assay: co-IP).

binding, binds:
CHD4 (from UniProt Q6PDQ2 1-1915) (enzyme), SMARCA5 (SNF2H) (from UniProt Q91ZW3 1-1051) (enzyme), B1
